The values below come from PMC7677509.

By UniProt entry, the sequences of proteins in these tests, tags left out. Residues count along the entry.
UniProt P17936, residues 28-291: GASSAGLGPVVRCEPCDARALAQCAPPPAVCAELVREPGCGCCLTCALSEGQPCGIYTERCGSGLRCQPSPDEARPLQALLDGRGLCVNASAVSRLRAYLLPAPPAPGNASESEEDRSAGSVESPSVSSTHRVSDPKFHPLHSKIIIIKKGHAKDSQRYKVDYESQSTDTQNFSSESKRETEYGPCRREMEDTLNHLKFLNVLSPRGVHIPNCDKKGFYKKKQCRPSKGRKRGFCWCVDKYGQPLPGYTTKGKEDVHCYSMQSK

The assay addresses T1, FLAG-tagged cyclin G2 (UniProt Q16589).
T1 sequence: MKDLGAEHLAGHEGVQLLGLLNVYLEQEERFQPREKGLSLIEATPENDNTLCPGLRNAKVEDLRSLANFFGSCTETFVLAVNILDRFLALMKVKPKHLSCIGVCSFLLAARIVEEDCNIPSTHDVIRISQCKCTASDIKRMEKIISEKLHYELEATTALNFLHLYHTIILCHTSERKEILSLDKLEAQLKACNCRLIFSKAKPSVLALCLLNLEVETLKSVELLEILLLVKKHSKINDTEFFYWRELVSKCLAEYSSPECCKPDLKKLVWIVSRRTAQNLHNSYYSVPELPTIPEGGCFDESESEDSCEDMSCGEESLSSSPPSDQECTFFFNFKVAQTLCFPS
The assay can be described thus: affinity purification with mass spectrometry; cells expressing FLAG or FLAG-tagged cyclin G2 lysed in RIPA buffer; anti-FLAG affinity gel; washed in PBS; gel bands stained with Coomassie, digested, mass spectrometry.

Results are given in words; binding and its absence hold for the method and conditions named. Binding seen in cells or lysates may run through a third protein. A yes stands for co-enrichment or nearness to the bait. Other partners may have been found. Sequences can lack the tags named with a protein.

“insulin-like growth factor binding protein 3 (from UniProt P17936 28-291)”: the binding entry is “binds”.
